## Percent effect of library compounds

The chains behind the UniProt entries cited, without tags or fusion partners. Residues count along the entry.
UniProt Q4DA54, 1-478: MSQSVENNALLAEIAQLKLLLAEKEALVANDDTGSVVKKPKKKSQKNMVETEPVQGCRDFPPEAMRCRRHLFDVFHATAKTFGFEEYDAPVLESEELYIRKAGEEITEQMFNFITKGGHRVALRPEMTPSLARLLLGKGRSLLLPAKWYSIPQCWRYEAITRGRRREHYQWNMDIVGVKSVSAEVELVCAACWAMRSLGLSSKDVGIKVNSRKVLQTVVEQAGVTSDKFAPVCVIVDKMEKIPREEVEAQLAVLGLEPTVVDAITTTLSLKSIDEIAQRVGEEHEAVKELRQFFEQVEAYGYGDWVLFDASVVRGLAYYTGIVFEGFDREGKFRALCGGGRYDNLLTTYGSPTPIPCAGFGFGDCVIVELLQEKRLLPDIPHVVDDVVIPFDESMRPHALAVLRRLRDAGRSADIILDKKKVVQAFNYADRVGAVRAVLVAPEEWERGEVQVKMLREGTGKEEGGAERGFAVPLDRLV
UniProt P9WPC5, whole entry: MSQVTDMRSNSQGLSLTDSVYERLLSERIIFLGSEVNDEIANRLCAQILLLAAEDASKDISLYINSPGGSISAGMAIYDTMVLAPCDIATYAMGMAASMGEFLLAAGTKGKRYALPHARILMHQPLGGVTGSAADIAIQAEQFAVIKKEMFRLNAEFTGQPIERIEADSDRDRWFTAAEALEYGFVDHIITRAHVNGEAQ
UniProt P9WPC3, whole entry partner: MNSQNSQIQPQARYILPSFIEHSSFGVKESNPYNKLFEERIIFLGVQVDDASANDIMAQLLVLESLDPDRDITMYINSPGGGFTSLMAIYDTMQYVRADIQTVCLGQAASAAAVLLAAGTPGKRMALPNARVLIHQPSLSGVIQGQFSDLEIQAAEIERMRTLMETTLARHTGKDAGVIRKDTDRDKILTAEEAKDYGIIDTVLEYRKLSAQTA
UniProt Q8IDJ8, 1-583: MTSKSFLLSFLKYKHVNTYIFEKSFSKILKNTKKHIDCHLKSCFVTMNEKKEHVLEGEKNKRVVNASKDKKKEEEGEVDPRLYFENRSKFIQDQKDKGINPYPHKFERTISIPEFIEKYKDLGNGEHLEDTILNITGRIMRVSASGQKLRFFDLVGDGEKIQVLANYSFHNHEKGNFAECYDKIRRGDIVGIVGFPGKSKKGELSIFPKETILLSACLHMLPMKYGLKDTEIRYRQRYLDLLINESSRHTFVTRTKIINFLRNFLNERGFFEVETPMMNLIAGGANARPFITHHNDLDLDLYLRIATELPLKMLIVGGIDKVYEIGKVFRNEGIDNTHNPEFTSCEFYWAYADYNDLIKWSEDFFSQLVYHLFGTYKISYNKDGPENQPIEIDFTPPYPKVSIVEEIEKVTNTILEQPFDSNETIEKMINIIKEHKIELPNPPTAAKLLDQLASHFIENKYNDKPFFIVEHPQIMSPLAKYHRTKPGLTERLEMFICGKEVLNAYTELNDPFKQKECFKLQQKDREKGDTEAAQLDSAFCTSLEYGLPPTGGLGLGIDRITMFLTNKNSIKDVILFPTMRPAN

Leishmania in macrophages: 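Cell assay of Leishmania donovani living inside macrophages; the read-out is not stated. Concentration: 30 µM. The record gives no direction; compounds that gave an IC50 in retests scored well above the rest, so higher reads as stronger inhibition. Of about 69,000 compounds tested this way, about 1,000 (1.5%) reached 50% or more in at least one test.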
TcHisRS: 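Enzyme assay of histidyl-tRNA synthetase; the read-out is not stated. Target: Histidine-tRNA ligase, Trypanosoma cruzi CL Brener (UniProt Q4DA54). Concentration: 30 µM. Direction is inferred from retests: higher values go with stronger inhibition. Size under these conditions: about 69,000 compounds, about 31 of them at 50% or above in at least one test.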
ClpP1P2: 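Protease assay of ClpP1P2, read by the AMC dye that it sets free. Target: ClpP1P2, Mycobacterium tuberculosis (UniProt P9WPC5 and UniProt P9WPC3). Compounds at 50 µM. Direction is inferred from only a few compounds that gave an IC50; most scored high, so higher reads as stronger inhibition. Most other retested compounds had strongly negative values. About 69,000 compounds were tested under these conditions; 0.015% (about 10) showed 50% or more at least once.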
Toxoplasma: 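Assay of Toxoplasma gondii numbers, read through their beta-galactosidase reporter with a colour substrate. Concentration: 10 µM. The record gives no direction; the compounds picked for IC50 retests had high values, so higher reads as fewer parasites. About 67,000 compounds were tested under these conditions; 0.38% (about 260) showed 50% or more at least once.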
PfKRS1: 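Lysine-tRNA ligase, Plasmodium falciparum 3D7 (UniProt Q8IDJ8). Enzyme assay of the cytosolic lysyl-tRNA synthetase in 384-well plates, read by luminescence. Compounds at 30 µM. Direction is inferred from only a few compounds that gave an IC50; most scored high, so higher reads as stronger inhibition. Size under these conditions: about 69,000 compounds, about 49 of them at 50% or above in at least one test.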

Values are the deposited “Percent Effect”, in %. The controls that fix the scale are not given in the record; negative values are as filed. This is an unselected part of the compounds tested. Two or more numbers in one place are separate tests of the same structure; such repeats can differ widely.

CC(=O)c1ccc(N2CCN(C(=O)c3cc(C(C)C)nn3C)CC2)cc1 read Leishmania in macrophages: 22.66%; TcHisRS: 13.1%; ClpP1P2: -0.848%; Toxoplasma: -1.747%; PfKRS1: -2.292%. For CN(C)c1nc(CNC(=O)NC2CCc3ccccc32)cs1 (configuration not stated) the result was Leishmania in macrophages: -4.101%; TcHisRS: 2.128%; ClpP1P2: -3.042%; Toxoplasma: -5.52%; PfKRS1: 1.278%. With c1csc(-c2nc(CN3CCCCC3Cn3cncn3)cs2)c1 (configuration not stated) the screen gave Leishmania in macrophages: 14.58%; TcHisRS: 6.286%; ClpP1P2: -6.577%; Toxoplasma: -30.86%; PfKRS1: 2.302%. With COCCNC(=O)c1cn(C(C)(C)C)c2ncccc12 the screen gave Leishmania in macrophages: 5.721%; TcHisRS: -1.075%; ClpP1P2: 15.18%; Toxoplasma: -4.019%; PfKRS1: -1.089%. Result for CS(=O)(=O)N1C[C@@H]2CC[C@H](C1)N(C(=O)Cn1ccc3ccccc31)C2 was TcHisRS: -1.681%; ClpP1P2: -4.727%; PfKRS1: 12.52%. With CC(=O)N1CCO[C@@H]2CN(S(=O)(=O)c3ccc(C)cc3)CC[C@@H]2C1 the screen gave TcHisRS: 4.444%; ClpP1P2: 15.5%; PfKRS1: 0.121%. With CN(C)CCN1C(=O)CCC12CCCN(C(=O)c1cccnc1)CC2 (configuration not stated) the screen gave TcHisRS: 6.25%; ClpP1P2: -2.245%; PfKRS1: 6.188%. With Cc1nc(CN(C)CC2CCCN(CCc3ccc(Cl)cc3)C2)no1 (configuration not stated) the screen gave Leishmania in macrophages: 31.95% & 53.58%; TcHisRS: -2.41%; ClpP1P2: -5.029%; Toxoplasma: -4.002%; PfKRS1: 4.426%.

With CN1CCC(Oc2ccc(NC(=O)c3ccccc3)cc2)CC1 the screen gave Leishmania in macrophages: -1.433%; TcHisRS: -6.533%; ClpP1P2: -11.85%; Toxoplasma: -4.785%; PfKRS1: -2.267%. Result for CC1CN(Cc2cc(C#N)ccc2F)CCN1Cc1nccn1C (configuration not stated) was Leishmania in macrophages: 14.03%; TcHisRS: 4.373%; ClpP1P2: -31.83%; Toxoplasma: 17.63%; PfKRS1: 1.824%. O=C1NCCN(CC2CC2)C12CCN(Cc1ccccc1)CC2 gave TcHisRS: 2.521%; ClpP1P2: 13.8%; PfKRS1: 1.396%. Result for Oc1ccc(CCC2CCCCN2Cc2noc(C3CC3)n2)cc1 (configuration not stated) was Leishmania in macrophages: -0.5435%; TcHisRS: 7.2%; ClpP1P2: 5.608%; Toxoplasma: -5.003%; PfKRS1: -5.452%. Result for CC(C)(CNC1CCCN(Cc2ccccc2F)C1)CN1CCOCC1 (configuration not stated) was Leishmania in macrophages: 5.969%; TcHisRS: 1.026%; ClpP1P2: -4.784%; Toxoplasma: 14.21%; PfKRS1: 5.533%. For NCCn1cc(C(=O)N2CCCCCC2c2cccc(F)c2)nn1 (configuration not stated) the result was Leishmania in macrophages: 40.06%; TcHisRS: 6.186%; ClpP1P2: -0.2178%; Toxoplasma: 11.78%; PfKRS1: -4.047%. Result for Cc1ncsc1C(=O)NC1CCN(CC(N)=O)CC1 was Leishmania in macrophages: -15.59%; TcHisRS: 8.671%; ClpP1P2: -27.72%; Toxoplasma: -8.562%; PfKRS1: 1.588%. For NC(=O)c1ccc2c(c1)nc1n2CCN(Cc2ccco2)C1 the result was Leishmania in macrophages: 9.465%; TcHisRS: 2.174%; ClpP1P2: -7.882%; Toxoplasma: 0.4525%; PfKRS1: 7.092%.

CCC(=O)c1ccc(OCC(=O)NC(C)c2nnc(C)[nH]2)cc1 (configuration not stated) gave Leishmania in macrophages: 16.82%; TcHisRS: 6.077%; ClpP1P2: 3.004%; Toxoplasma: 3.085%; PfKRS1: -0.466%. COCCN(Cc1cccc(O)c1)Cc1ccccc1F read Leishmania in macrophages: 39.77%; TcHisRS: 8.163%; ClpP1P2: -1.029%; Toxoplasma: 3.846%; PfKRS1: 6.378%. For Cc1cc(C)cc(C(=O)Nc2cccc(CN3CCCC3C(N)=O)c2)c1 (configuration not stated) the result was Leishmania in macrophages: 25.49%; TcHisRS: 11.67%; ClpP1P2: -0.9609%; Toxoplasma: 16.74%; PfKRS1: 7.548%. CC1=N[C@@]2(CC[C@@H]3CN(Cc4cccc(Cl)c4)C[C@@H]32)C(=O)N1CC1CC1 gave TcHisRS: 9.135%; ClpP1P2: 3.494%; PfKRS1: -3.1%.

The values are deposited in ChEMBL (CHEMBL3988442, “University of Dundee, Small-Polar-MMV Screening Library” (2021)).